# Counter-ions that a name gives are not always drawn. Some of the results follow. Most values lie at the level of the controls, where differences are scatter.
# Key:
# Settings in all cases: 5 µM; treatment: days 7-14 after plating, readout day 21
# [1] = system: hPSC-derived cortical neurons (WA09); test: nucleus area z-score vs screen plate; higher = larger nuclei (more mature)
# [2] = system: hPSC-derived cortical neurons (WA09); test: total neurite length per nucleus (MAP2) z-score; higher = more neurite growth
# [3] = system: hPSC-derived cortical neurons (WA09); test: nucleus roundness z-score vs screen plate; higher = rounder nuclei (more mature)
# [4] = system: hPSC-derived cortical neurons (WA09); test: KCl-induced FOS+/EGR-1+ double-positive nuclei fraction z-score (KCl minus unstimulated); higher = stronger activity-induced IEG response
Structure (SMILES),nucleus area z-score [1],total neurite length per nucleus (z-score) [2],nucleus roundness z-score [3],KCl-induced FOS+/EGR-1+ double-positive nuclei fraction z-score [4]
COc1cc([C@@H]2c3cc4c(cc3[C@H](O)[C@H]3COC(=O)[C@@H]23)OCO4)cc(OC)c1OC [Picropodophyllin (PPP)],-4.26,-1.54,-2.44,-0.622
O=c1[nH]c2ccccc2n1C1CCN(CCCC(c2ccc(F)cc2)c2ccc(F)cc2)CC1 [Pimozide],-3.85,-2.07,-3.76,-0.619
CN[C@@H]1[C@@H](O)[C@@H](O[C@@H]2[C@@H](O)[C@H](O[C@H]3O[C@H]([C@@H](C)O)[C@@H](O)[C@H](O)[C@H]3N)[C@@H](N)C[C@H]2N)OC[C@]1(C)O [Geneticin (G418 Sulfate)],-1.6,-0.875,-0.595,-1.46
COc1cc(OC)c(OC)cc1C=O [Asaraldehyde],0.921,0.852,-0.754,-0.646
O=C(NCC1CCOCC1)c1cnc(Nc2ccc(Cl)cc2Cl)nc1C(F)(F)F,0.122,1.94,1.01,-0.856
Cc1cc(SCc2sc(-c3ccc(C(F)(F)F)c(F)c3)nc2C)ccc1OCC(=O)O,-0.0731,0.0928,-0.00673,-0.138
Cc1cc(O)ccc1Cl [Chlorocresol],1.53,-0.788,-1.66,0.249
Cc1cc(C(C#N)c2ccc(Cl)cc2)c(Cl)cc1NC(=O)c1cc(I)cc(I)c1O (stereo not drawn) [Closantel Sodium],-0.0902,1.48,0.81,0.753
C/C(O)=C(\C#N)C(=O)Nc1cc(Br)ccc1Br,0.513,0.694,0.274,3.29
CC[C@H]1CN2CC[C@H]1C[C@@H]2[C@@H](O)c1ccnc2ccc(OC)cc12 [Hydroquinidine],-0.755,0.314,1.13,1.37
C[C@]12N[C@H](Cc3ccccc31)c1ccccc12 [MK-801 (Dizocilpine)],0.697,-0.211,-0.575,-0.321
NCC1(CC(=O)O)CCCCC1 [Gabapentin],2.93,-0.619,-0.185,-0.372
Cc1cccc(Cc2c[nH]cn2)c1C [Detomidine HCl],-0.747,0.514,-0.81,0.368
CC(C)NCC(O)c1ccccc1Cl (stereo not drawn) [Clorprenaline HCl],0.705,0.458,0.416,2.26
CC(C)(C)c1cc(C=C(C#N)C#N)cc(C(C)(C)C)c1O [Tyrphostin 9],1.04,0.796,0.474,-0.293
CC(=O)NC1CCSC1=O (stereo not drawn) [Citiolone],-0.0481,-0.528,-0.134,-0.731
C=CC[C@]1(O)CC[C@H]2[C@@H]3CCC4=CC(=O)CCC4=C3C=C[C@@]21C [Altrenogest],-0.36,-0.183,-0.484,-0.541
Cn1cc(C2=C(c3cn(C4CCN(Cc5ccccn5)CC4)c4ccccc34)C(=O)NC2=O)c2ccccc21,0.348,-0.232,-0.55,0.75
O=P1(N(CCCl)CCCl)NCCCO1 (stereo not drawn) [Cyclophosphamide Monohydrate],1.3,-1.32,0.128,0.102
O=C(O[C@H]1C[C@H]2CC[C@@H](C1)[N+]21CCCC1)C(O)(c1ccccc1)c1ccccc1 [Trospium chloride],1.37,-0.168,-0.518,-0.439
CCN1CCN(C(=O)Cc2ccc(Nc3ncc(F)c(Nc4ccc(C(=O)Nc5ccccc5Cl)cc4)n3)cc2)CC1 [Aurora A Inhibitor I],0.126,0.254,-1.55,-1.16
O=C1C=CC[C@@H]2[C@H]3CCCN4CCC[C@@H](CN12)[C@@H]34 [Sophocarpine],0.00616,0.00825,0.482,0.717
Cn1c(CCCC(=O)O)nc2cc(N(CCCl)CCCl)ccc21 [Bendamustine HCl],-0.344,-0.488,-0.363,0.477
O=C(O)CNC(=O)c1c(O)c2ccccc2n(Cc2ccccc2)c1=O,-0.251,1.2,0.374,0.794

# A stretch from the list above, for reference:
Structure (SMILES),nucleus area z-score [1],total neurite length per nucleus (z-score) [2],nucleus roundness z-score [3],KCl-induced FOS+/EGR-1+ double-positive nuclei fraction z-score [4]
COc1cc(OC)c(OC)cc1C=O [Asaraldehyde],0.921,0.852,-0.754,-0.646
O=C(NCC1CCOCC1)c1cnc(Nc2ccc(Cl)cc2Cl)nc1C(F)(F)F,0.122,1.94,1.01,-0.856
Cc1cc(SCc2sc(-c3ccc(C(F)(F)F)c(F)c3)nc2C)ccc1OCC(=O)O,-0.0731,0.0928,-0.00673,-0.138

# Remaining list, next part.

Structure (SMILES),nucleus area z-score [1],total neurite length per nucleus (z-score) [2],nucleus roundness z-score [3],KCl-induced FOS+/EGR-1+ double-positive nuclei fraction z-score [4]
O=P1(NCCCl)OCCCN1CCCl (stereo not drawn) [Ifosfamide],0.452,-0.419,-0.74,0.208
O=[N+]([O-])C(Br)(CO)CO [Bronopol],1.6,-1.36,-1.21,-2.01
c1ccc([C@@H]2C[C@H]2NC2CCNCC2)cc1,1.82,1.04,1.19,3.29
Cc1ccc(-n2nccn2)c(C(=O)N2CCN(c3nc4cc(Cl)ccc4o3)CC[C@H]2C)c1 [Suvorexant (MK-4305)],0.703,-0.543,-1.01,-0.777
COc1cc2c(cc1OC)C1CC(=O)C(CC(C)C)CN1CC2 (stereo not drawn) [Tetrabenazine (Xenazine)],2.44,-0.829,-0.369,1.55
C[C@]12CCC(=O)C(O)=C1CC[C@@H]1[C@@H]2CC[C@]2(C)C(=O)CC[C@@H]12 [Formestane],0.585,0.349,0.00687,1.08
COc1ccc(C[C@H]2NC[C@H](O)[C@H]2OC(C)=O)cc1 [Anisomycin],-15.3,-5.28,-6.57,-1.29
NCC(O)c1ccc(O)cc1 (stereo not drawn) [(+_-)-Octopamine HCl],0.121,1.24,1.13,0.284
CN(C)CCc1ccc(O)cc1 [Hordenine],0.154,-0.041,-0.711,-0.435
NCC1(CC(=O)O)CCCCC1 [Gabapentin HCl],-0.179,0.109,0.029,0.477
"OCC(Br)(Br)Br [2,2,2-Tribromoethanol]",1.43,1.17,1.2,1.53
CCN(CC)C(=O)c1ccc(C2=CC3(CCNCC3)Oc3cccc(O)c32)cc1,0.86,0.0444,-1.19,0.268
C=CN1CCCC1=O.II [Povidone iodine],2.21,0.429,0.23,1.16
CC1=C(O)C(=O)C=C2C1=CC=C1[C@@]2(C)CC[C@@]2(C)[C@@H]3C[C@](C)(C(=O)O)CC[C@]3(C)CC[C@]12C [Celastrol],-3.01,-1.67,-4.26,-0.459
CNCC(=O)c1ccc(O)c(O)c1 [Adrenalone HCl],0.519,0.588,0.508,-0.389
C[C@@H]1O[C@@H](O[C@H]2C[C@@H](O)[C@]3(CO)[C@H]4[C@H](O)C[C@]5(C)[C@@H](C6=CC(=O)OC6)CC[C@]5(O)[C@@H]4CC[C@]3(O)C2)[C@H](O)[C@H](O)[C@H]1O [Ouabain],-7.31,-0.302,-5.05,1.31
CCCCCCCCCCCCCCCC[n+]1ccccc1 [Cetylpyridinium Chloride],-14.7,-4.13,-2.76,-1.03
COC(=O)C1=CCCN(C)C1 [Arecoline],-0.614,-0.783,-0.149,-0.0446
CC(=O)OC12COC1CC(O)C1(C)C(=O)C(O)C3=C(C)C(O)CC(O)(C(OC(=O)c4ccccc4)C21)C3(C)C (stereo not drawn) [10-Deacetylbaccatin-III],0.015,-0.142,-0.479,-0.622
CCC(COC(=O)c1cc(OC)c(OC)c(OC)c1)(c1ccccc1)N(C)C (stereo not drawn) [Trimebutine],-0.00116,0.709,0.00509,0.378
Cc1cccc([C@H](C)c2c[nH]cn2)c1C [Dexmedetomidine HCl],-0.117,-0.338,0.472,1.1
COc1cc(-n2c(=S)[nH]c3ccccc3c2=O)c(Cl)cc1Cl [Mdivi-1],1.51,-0.419,-0.755,-0.393
CN1[C@@H]2CC(O)C[C@H]1[C@@H]1O[C@@H]12 (stereo partly drawn) [Scopine],-0.458,0.473,0.0233,1.26

# — the supplement of paper PMC11348887
